This passage reports step yield results from article PMC12483151 (JACS Au, 2025).

Some peptides are written in HELM: one residue between dots, names in brackets for other building blocks, links after the first $.

This series is described as follows: general procedure: Fmoc solid-phase peptide synthesis; Rink amide resin; DIC/HOBt. Conditions: late stage modification step.

On to “PEPTIDE1{[ac].Y.L.D.[K(Py)].V.L.T.Q.[am]}$$$$V2.0”, for which the step yield (isolated yield) turned out to be 47%.

For the setting “on peptide 2a”, “PEPTIDE1{[ac].L.I.L.[K(Py)].P.F.[am]}$$$$V2.0” returned a step yield of 22% yield.
